Some of the results follow. The data scatter; read single values as rough.
How the values were obtained:
[1] = compound: ClCC(=O)N[C@@H]1CCCc2ccccc12; experiment: log2 mean competition ratio of IA-DTB cysteine labelling (DMSO/compound) (log2 ratio); higher = stronger cysteine engagement by compound; conditions: treatment time: 4 h, cell line lysate: HEK293T
Procedure: (§1)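 IA-DTB competitive cysteine chemoproteomics in HEK293T RIPA lysate. Lysates were treated with compound 29 or 30 at 50 or 200 µM for 4 h, then IA-DTB (500 µM, 1 h), trypsin-digested, NeutrAvidin-enriched and analysed by diaPASEF. Competition ratio = intensity DMSO / intensity compound (n=4 treated, n=64 DMSO); binding: mean log2 CR ≥ 1 and p ≤ 0.05 plus QC filters. Target is the cysteine site.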

By UniProt entry, the sequences of proteins in these tests, tags left out. Where a name states a change or a piece, a line headed by the entry shows the natural chain unless it says otherwise. Residues count along the entry.
UniProt P41214: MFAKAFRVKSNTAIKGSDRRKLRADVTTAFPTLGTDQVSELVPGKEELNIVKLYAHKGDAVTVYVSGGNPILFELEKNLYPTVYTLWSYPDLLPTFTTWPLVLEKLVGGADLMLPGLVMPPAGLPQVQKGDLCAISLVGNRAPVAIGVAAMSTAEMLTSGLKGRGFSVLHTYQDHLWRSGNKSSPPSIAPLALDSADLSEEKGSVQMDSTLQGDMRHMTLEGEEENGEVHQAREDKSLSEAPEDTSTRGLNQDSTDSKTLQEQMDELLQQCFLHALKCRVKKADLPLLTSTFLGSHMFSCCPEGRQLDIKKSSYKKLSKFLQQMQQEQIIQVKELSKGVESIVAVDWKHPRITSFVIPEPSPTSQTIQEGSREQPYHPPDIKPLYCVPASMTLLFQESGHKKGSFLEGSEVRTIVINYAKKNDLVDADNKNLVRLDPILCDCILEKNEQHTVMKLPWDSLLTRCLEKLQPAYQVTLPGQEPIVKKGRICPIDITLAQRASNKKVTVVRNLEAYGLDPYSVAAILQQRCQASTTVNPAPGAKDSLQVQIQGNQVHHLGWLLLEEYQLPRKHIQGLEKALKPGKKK
UniProt Q13541: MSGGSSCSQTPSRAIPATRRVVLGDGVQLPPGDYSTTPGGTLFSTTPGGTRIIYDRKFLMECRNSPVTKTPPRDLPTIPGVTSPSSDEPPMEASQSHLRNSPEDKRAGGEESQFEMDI
UniProt P15924: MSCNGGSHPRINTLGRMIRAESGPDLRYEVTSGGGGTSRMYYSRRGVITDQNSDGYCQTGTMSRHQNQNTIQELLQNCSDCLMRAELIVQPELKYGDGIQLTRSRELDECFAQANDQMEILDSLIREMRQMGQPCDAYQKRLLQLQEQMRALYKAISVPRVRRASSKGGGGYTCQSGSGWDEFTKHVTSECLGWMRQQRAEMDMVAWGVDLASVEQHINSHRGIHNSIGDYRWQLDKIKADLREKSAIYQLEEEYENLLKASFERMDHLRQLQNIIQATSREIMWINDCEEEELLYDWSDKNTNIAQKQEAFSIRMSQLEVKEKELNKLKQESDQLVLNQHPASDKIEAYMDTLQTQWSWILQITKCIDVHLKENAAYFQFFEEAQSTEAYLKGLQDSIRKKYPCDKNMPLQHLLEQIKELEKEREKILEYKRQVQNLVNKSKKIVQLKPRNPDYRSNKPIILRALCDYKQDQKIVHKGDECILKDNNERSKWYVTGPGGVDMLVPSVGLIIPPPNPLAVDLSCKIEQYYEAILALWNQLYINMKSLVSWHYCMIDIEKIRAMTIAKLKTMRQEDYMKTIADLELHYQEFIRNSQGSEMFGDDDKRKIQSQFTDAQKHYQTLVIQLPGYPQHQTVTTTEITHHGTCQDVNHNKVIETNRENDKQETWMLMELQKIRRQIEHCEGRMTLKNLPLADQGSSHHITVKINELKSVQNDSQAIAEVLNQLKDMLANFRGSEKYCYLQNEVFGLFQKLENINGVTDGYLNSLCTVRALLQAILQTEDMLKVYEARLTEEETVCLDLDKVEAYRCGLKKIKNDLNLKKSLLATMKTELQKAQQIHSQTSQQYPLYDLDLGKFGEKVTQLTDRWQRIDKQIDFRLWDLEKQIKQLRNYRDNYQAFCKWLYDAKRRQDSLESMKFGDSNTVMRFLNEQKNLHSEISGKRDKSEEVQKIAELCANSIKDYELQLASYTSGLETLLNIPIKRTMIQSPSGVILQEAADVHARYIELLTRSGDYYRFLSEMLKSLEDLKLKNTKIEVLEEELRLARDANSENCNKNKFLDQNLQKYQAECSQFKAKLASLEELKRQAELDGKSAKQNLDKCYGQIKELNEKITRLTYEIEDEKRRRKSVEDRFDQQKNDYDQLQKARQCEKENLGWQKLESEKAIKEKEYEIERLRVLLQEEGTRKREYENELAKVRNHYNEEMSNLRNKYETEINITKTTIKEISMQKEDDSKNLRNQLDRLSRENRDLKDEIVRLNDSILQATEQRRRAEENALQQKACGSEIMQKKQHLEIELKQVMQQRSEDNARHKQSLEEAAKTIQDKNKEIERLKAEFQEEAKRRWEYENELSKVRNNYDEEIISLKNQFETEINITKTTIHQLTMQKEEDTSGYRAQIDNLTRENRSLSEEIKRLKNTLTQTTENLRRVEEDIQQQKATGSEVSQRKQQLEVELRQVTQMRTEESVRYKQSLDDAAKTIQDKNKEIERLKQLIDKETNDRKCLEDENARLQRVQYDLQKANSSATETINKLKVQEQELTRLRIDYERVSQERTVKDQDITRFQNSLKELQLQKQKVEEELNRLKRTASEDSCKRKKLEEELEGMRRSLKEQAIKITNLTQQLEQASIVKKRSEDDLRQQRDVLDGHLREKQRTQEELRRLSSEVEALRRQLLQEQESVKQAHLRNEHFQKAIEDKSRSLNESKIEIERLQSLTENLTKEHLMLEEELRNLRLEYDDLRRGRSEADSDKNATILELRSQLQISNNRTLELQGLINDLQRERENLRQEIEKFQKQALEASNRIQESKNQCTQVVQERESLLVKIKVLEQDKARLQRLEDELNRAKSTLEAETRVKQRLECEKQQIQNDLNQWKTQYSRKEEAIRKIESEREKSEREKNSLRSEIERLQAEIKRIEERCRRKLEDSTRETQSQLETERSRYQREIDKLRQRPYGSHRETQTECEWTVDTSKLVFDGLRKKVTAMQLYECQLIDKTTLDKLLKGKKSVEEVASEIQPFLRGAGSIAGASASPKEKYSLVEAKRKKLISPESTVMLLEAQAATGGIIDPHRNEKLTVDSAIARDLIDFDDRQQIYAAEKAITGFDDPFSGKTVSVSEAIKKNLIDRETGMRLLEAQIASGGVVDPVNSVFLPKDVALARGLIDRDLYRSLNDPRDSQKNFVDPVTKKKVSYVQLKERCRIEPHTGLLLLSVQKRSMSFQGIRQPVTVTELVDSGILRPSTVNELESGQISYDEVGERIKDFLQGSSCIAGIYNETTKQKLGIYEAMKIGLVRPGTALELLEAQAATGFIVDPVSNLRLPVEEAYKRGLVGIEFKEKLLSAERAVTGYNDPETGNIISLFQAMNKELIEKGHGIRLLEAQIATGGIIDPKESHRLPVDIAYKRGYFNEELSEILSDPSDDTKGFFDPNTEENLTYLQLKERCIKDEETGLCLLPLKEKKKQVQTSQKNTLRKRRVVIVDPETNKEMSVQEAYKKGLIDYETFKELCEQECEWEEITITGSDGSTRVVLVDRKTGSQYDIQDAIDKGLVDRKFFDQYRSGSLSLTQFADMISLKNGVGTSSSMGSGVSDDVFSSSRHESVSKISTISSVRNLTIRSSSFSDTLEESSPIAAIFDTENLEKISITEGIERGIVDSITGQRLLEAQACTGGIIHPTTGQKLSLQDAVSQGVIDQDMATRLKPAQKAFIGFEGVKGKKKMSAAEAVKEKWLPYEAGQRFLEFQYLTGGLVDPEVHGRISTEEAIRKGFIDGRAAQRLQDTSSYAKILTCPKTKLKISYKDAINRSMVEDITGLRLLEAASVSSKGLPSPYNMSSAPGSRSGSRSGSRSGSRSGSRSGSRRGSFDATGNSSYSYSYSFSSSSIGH
UniProt Q14204, 2185-2206: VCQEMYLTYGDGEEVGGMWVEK
UniProt Q15723: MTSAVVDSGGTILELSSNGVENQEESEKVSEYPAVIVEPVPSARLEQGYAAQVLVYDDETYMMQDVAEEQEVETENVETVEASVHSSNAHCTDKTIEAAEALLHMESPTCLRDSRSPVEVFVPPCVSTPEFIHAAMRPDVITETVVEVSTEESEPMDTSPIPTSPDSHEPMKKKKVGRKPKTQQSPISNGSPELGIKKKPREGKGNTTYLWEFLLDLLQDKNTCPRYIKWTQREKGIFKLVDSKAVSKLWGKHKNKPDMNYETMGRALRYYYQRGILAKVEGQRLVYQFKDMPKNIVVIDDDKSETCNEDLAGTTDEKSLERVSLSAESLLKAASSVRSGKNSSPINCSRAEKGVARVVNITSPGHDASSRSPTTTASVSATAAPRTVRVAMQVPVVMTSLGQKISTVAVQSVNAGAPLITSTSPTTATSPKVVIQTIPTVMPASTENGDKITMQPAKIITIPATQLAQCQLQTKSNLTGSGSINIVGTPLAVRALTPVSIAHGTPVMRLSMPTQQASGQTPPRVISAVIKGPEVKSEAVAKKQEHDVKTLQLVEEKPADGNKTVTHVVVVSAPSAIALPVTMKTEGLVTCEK
UniProt O75521, 71-90: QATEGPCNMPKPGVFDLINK
UniProt Q9GZT9: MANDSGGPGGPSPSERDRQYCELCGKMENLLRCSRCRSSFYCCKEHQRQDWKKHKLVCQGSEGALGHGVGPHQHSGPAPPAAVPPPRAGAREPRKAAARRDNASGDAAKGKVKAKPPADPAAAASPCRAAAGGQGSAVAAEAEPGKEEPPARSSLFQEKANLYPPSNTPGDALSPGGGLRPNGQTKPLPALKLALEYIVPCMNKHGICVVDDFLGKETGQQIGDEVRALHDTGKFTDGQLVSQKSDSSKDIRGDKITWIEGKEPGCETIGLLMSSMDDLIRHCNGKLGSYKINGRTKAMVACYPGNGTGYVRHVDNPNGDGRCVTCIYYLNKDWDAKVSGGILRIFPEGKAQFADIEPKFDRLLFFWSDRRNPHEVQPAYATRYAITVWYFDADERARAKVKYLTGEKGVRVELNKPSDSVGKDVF
UniProt Q9NZJ5, 802-823: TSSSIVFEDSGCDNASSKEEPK
UniProt Q8N5C7, 24-49: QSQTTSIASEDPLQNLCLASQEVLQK
UniProt Q8NDI1, 663-686: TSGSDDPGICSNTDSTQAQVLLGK
UniProt Q9H8V3: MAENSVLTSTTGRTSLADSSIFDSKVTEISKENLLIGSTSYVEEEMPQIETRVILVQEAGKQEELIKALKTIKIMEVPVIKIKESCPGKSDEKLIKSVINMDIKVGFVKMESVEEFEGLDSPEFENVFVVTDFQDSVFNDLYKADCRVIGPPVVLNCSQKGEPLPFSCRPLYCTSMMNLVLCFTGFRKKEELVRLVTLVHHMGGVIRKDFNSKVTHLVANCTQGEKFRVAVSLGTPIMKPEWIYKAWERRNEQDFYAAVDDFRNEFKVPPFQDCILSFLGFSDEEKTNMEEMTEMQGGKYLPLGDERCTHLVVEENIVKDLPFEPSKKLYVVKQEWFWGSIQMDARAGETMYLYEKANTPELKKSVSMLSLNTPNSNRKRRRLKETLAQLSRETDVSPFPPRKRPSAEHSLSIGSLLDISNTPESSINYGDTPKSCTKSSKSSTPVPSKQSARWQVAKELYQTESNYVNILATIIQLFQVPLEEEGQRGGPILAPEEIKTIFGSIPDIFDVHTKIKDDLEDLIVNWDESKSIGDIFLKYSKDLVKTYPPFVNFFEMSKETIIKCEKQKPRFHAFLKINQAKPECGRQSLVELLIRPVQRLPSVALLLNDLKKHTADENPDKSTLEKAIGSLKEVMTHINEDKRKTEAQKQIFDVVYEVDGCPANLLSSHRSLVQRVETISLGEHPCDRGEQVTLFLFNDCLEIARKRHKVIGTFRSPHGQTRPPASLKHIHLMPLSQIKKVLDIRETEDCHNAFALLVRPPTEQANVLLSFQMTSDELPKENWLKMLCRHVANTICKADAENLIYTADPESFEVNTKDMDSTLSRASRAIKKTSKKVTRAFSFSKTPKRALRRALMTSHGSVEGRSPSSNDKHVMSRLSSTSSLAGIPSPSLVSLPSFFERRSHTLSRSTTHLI
UniProt Q16254: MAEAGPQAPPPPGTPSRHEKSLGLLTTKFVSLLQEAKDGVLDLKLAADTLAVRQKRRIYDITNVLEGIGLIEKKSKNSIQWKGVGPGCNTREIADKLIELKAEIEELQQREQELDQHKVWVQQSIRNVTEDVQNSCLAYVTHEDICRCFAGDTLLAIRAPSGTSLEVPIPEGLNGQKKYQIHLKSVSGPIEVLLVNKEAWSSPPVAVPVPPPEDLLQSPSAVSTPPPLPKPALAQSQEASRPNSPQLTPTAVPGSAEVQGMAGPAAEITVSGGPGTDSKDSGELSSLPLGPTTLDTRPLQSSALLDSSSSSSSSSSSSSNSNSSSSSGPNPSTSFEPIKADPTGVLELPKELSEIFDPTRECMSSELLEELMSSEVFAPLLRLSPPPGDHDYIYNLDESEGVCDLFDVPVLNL
UniProt Q03001, 396-416: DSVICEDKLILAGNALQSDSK
UniProt Q96G04: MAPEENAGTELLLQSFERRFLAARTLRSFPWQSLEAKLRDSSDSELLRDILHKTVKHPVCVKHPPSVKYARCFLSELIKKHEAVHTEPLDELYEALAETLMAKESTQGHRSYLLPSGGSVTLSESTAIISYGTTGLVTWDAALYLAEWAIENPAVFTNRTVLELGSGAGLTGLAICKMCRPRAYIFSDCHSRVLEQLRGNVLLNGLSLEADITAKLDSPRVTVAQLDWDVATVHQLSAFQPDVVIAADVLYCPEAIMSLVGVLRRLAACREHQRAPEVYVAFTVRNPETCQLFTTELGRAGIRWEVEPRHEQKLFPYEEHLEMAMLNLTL
UniProt P23919: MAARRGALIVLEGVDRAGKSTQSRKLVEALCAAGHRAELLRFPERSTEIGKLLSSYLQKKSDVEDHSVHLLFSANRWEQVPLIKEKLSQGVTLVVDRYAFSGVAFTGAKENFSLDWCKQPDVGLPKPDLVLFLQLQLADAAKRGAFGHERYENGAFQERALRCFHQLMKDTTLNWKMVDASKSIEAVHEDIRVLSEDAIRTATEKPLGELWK

[2] = compound: ClCC(=O)N[C@H]1CCCc2ccccc12; experiment: as above; conditions: treatment time: 4 h, cell line lysate: HEK293T
Procedure: as §1

Row | Target | log2 mean competition ratio ([1]; 50 µM) | log2 mean competition ratio ([1]; 200 µM) | log2 mean competition ratio ([2]; 50 µM) | log2 mean competition ratio ([2]; 200 µM)
1 | EIF3B C515 | -0.0119 | -0.1 | -0.187 | 0.0839
2 | EIF2D C133 (UniProt P41214) | 0.125 | -0.119 | 0.0556 | -0.232
3 | EIF4EBP1 C62 (UniProt Q13541) | 0.125 | 0.275 | 0.131 | 0.364
4 | DSC2 C797 (UniProt Q02487) | -0.0081 | 0.219 | -0.345 | 0.418
5 | DSP C1280 (UniProt P15924) | -0.0988 | 0.00896 | -0.156 | -0.0137
6 | DSP C174 (UniProt P15924) | 0.0137 | 0.108 | 0.0183 | 0.247
7 | ELAVL1 C13 (UniProt Q15717) | -0.207 | 0.139 | -0.594 | 0.149
8 | EIF3G C139 | -0.252 | 0.00142 | -0.638 | -0.0149
9 | DSP C1499 (UniProt P15924) | -0.241 | 0.101 | -0.235 | -0.0419
10 | EDC3 C47 (UniProt Q96F86) | -0.0259 | -0.2 | -0.249 | -0.0874
11 | EEF2 C41 (UniProt P13639) | -0.0511 | -0.251 | -0.0231 | 0.0688
12 | DYNC1H1 C3712 (UniProt Q14204) | -0.103 | 0.115 | -0.275 | 0.104
13 | ELAC2 C136 (UniProt Q9BQ52) | -0.0403 | -0.114 | -0.0835 | 0.119
14 | EDC4 C4 (UniProt Q6P2E9) | -0.216 | 0.154 | -0.326 | 0.113
15 | ELF2 C348 (UniProt Q15723) | -0.0662 | 0.0425 | 0.191 | 0.0813
16 | EHMT2 C1115 | 0.0788 | 0.269 | -0.749 | -0.00825
17 | EEF2 C591 (UniProt P13639) | -0.453 | 0.331 | -0.384 | 0.367
18 | DYNC1LI1 C247 (UniProt Q9Y6G9) | -0.0834 | 0.0277 | -0.317 | -0.232
19 | DSP C1855 (UniProt P15924) | -0.269 | 0.38 | -0.198 | -0.171
20 | DYNC2I1 C57 | -0.24 | 0.178 | -0.375 | 0.274

Row | Target | log2 mean competition ratio ([1]; 50 µM) | log2 mean competition ratio ([1]; 200 µM) | log2 mean competition ratio ([2]; 50 µM) | log2 mean competition ratio ([2]; 200 µM)
21 | ECI2 C368 (UniProt O75521) | -0.089 | 0.339 | -0.827 | 0.159
22 | DVL1 C382 (UniProt O14640) | 0.227 | 0.117 | -0.0328 | 0.295
23 | EGLN1 C127 (UniProt Q9GZT9) | -0.0691 | 0.223 | 0.0577 | 0.197
24 | EIF2S3B C434 | -0.274 | -0.187 | -0.262 | -0.2
25 | EBF2 C254 | -0.0345 | -0.0206 | -0.0691 | 0.0757
26 | EDC4 C976 (UniProt Q6P2E9) | 0.157 | -0.0905 | -0.284 | -0.291
27 | DZIP3 C318 (UniProt Q86Y13) | -0.00765 | 0.127 | -0.0503 | 0.0875
28 | EIF2AK3 C813 (UniProt Q9NZJ5) | 0.138 | -0.155 | 0.0809 | -0.102
29 | EIF3F C256 (UniProt O00303) | -0.181 | -0.184 | -0.225 | -0.16
30 | DYNC1H1 C2186 (UniProt Q14204) | -0.274 | -0.338 | -0.0822 | -0.368
31 | E2F5 C121 | 0.0122 | 0.302 | 0.0383 | 0.198
32 | DYNC2I2 C362 | 0.0822 | 0.191 | -0.0884 | 0.118
33 | DYNC1H1 C4216 (UniProt Q14204) | -0.232 | 0.246 | -0.21 | 0.394
34 | EIF4G3 C1411 | -0.199 | -0.354 | 0.15 | -0.235
35 | DTWD1 C40 (UniProt Q8N5C7) | -0.639 | -0.132 | -0.289 | 0.134
36 | DYNC1H1 C4438 (UniProt Q14204) | -0.622 | 0.0898 | -0.312 | 0.216
37 | EHBP1 C672 (UniProt Q8NDI1) | -0.457 | 0.225 | -0.151 | 0.0332
38 | DUS3L C396 (UniProt Q96G46) | 0.0941 | 0.713 | 0.0551 | 0.322
39 | ECT2 C221 (UniProt Q9H8V3) | 0.00854 | -0.155 | -0.00267 | -0.0958
40 | DSTN C12 (UniProt P60981) | -0.385 | 0.201 | -0.483 | 0.329

Row | Target | log2 mean competition ratio ([1]; 50 µM) | log2 mean competition ratio ([1]; 200 µM) | log2 mean competition ratio ([2]; 50 µM) | log2 mean competition ratio ([2]; 200 µM)
41 | DTX3L C250 (UniProt Q8TDB6) | 0.0253 | 0.181 | -0.262 | -0.043
42 | DSC3 C792 | -0.0976 | 0.119 | -0.107 | 0.241
43 | DYNC1LI1 C117 (UniProt Q9Y6G9) | 0.453 | 0.561 | 0.352 | 0.0685
44 | EEFSEC C442 (UniProt P57772) | 0.0453 | -0.00893 | 0.0258 | 0.00154
45 | DSC2 C898 (UniProt Q02487) | -0.0541 | -0.0282 | 0.0781 | 0.0273
46 | EHHADH C51 (UniProt Q08426) | -0.218 | -0.343 | 0.339 | -0.263
47 | EFL1 C38 (UniProt Q7Z2Z2) | -0.105 | -0.0129 | -0.125 | -0.143
48 | E2F4 C88 (UniProt Q16254) | -0.0745 | -0.00362 | 0.059 | -0.0651
49 | ECI2 C77 (UniProt O75521) | -0.0316 | 0.542 | -0.164 | 0.327
50 | DST C400 (UniProt Q03001) | -0.505 | 0.0336 | -0.379 | -0.166
51 | EIF2S1 C199 (UniProt P05198) | -0.108 | 0.289 | 0.613 | -0.237
52 | DST C5610 (UniProt Q03001) | -0.0624 | -0.0512 | -0.506 | -0.162
53 | EEF2 C567 (UniProt P13639) | -0.00022 | -0.372 | -0.449 | -0.418
54 | DTNA C309 | 0.238 | 0.188 | 0.27 | 0.192
55 | EGFR C1058 (UniProt P00533) | 0.195 | 0.283 | -0.132 | 0.458
56 | EEF2KMT C189 (UniProt Q96G04) | 0.503 | -0.174 | 0.547 | 0.407
57 | DTYMK C31 (UniProt P23919) | 0.343 | -0.0848 | 0.374 | -0.189
58 | DSP C899 (UniProt P15924) | 0.0302 | -0.251 | 0.351 | -0.119
59 | DRG2 C319 (UniProt P55039) | 0.133 | -0.403 | 0.21 | -0.333
60 | ELF2 C591 (UniProt Q15723) | -0.175 | -0.249 | 0.437 | 0.103

Single records, as listed above. Values in the order: log2 mean competition ratio ([1]; 50 µM) | log2 mean competition ratio ([1]; 200 µM) | log2 mean competition ratio ([2]; 50 µM) | log2 mean competition ratio ([2]; 200 µM)
DSC3 C792 is listed as -0.0976 | 0.119 | -0.107 | 0.241
DZIP3 C318 (UniProt Q86Y13) is listed as -0.00765 | 0.127 | -0.0503 | 0.0875
EIF3G C139 is listed as -0.252 | 0.00142 | -0.638 | -0.0149
EIF2S3B C434 is listed as -0.274 | -0.187 | -0.262 | -0.2
